Results published in PubChem BioAssay AID2685 (National Center for Advancing Translational Sciences (NCATS), 2010).
This is one part of the list. Shown are side measurements of this screen, not its main read-out; they come without a call. Compounds called inactive in the main read-out are mostly missing here. Words in brackets tell the shape of the fitted curve; partial curves, single points and poor fits give uncertain potencies.

Test: qHTS Assay for Lipid Storage Modulators in Drosophila S3 Cells;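 on cell number change: cells counted by Cell Tracker Red CMTPX staining in the red channel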
Conditions: BODIPY lipid droplet fluorescence, 18-24 h; for cell number change: measured here: cell count max response, cells fed with added oleic acid
Procedure, shortened: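 Drosophila S3 cells got compounds at several concentrations plus oleic acid (400 uM solution). Laser-scanning cytometry with 488 nm excitation read lipid droplets at 500-530 nm and cells at 575-640 nm. Percent activity was relative to 20 uM Triacsin C.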

[1] = measured here: cell number channel AC50, cells fed with added oleic acid
[2] = measured here: lipid fluorescence (Fed channel) AC50, cells fed with added oleic acid

Row | Compound | cell number change | AC50 [1] | AC50 [2]
1 | O=S(=O)(NC(=S)NC1CCCCC1)c1ccc(Br)cc1 | -15.9% | 2060 nM [falling, partial curve] | 4610 nM [falling, single point]
2 | O=C(Cc1ccc(-c2ccccc2)cc1)Nc1ccccn1 |  |  | 6510 nM [falling, single point]
3 | Cc1[nH]c2ccccc2c1CN1CCc2ccccc2C1 |  | 6510 nM [falling, single point] | 4110 nM [rising, single point]
4 | COc1ccc(-c2cc(-c3cccs3)c(C#N)c(SCC(=O)NCc3ccco3)n2)cc1 | -21.2% |  | 8200 nM [rising, partial curve]
5 | CCN(C(=O)COC(=O)/C(=C/c1ccccc1)n1nnnc1C)C1CCCCC1 |  |  | 4110 nM [falling, partial curve]
6 | CCOC(=O)CSc1nnc(CSc2nc(C)cc(C)n2)n1Cc1ccco1 | 11.3% |  | 
7 | CN(Cc1ccc(F)cc1)C(=O)c1cccc(S(=O)(=O)N2CCN(Cc3ccccc3)CC2)c1 | -33.5% | 20600 nM [falling, partial curve, poor fit] | 
8 | COc1ccc(CNC(=O)CCNS(=O)(=O)c2ccc(NC(C)=O)cc2)cc1OC | -6% |  | 5.17 nM [rising, full curve]
9 | O=C1N[C@@H](Cc2ccccc2)C(=O)N1CCN1CCOCC1 | -20.6% | 103 nM [falling, full curve, poor fit] | 23100 nM [falling, partial curve]
10 | CCn1cc([N+](=O)[O-])c(C(=O)N2N=C(c3ccccc3)CC2c2ccc([N+](=O)[O-])cc2)n1 (configuration not stated) | 15.2% |  | 2590 nM [rising, full curve]
11 | O=C(NCc1nnc(SCC(=O)N2CCCCCC2)o1)c1ccco1 | -7.75% |  | 82 nM [falling, full curve, poor fit]
12 | Cc1ccc2c(c1)c1ncn(Cc3ccc(F)cc3)c(=O)c1n2C | -7.74% | 731 nM [rising, single point] | 731 nM [rising, full curve, poor fit]
13 | Cc1ccc(S(=O)(=O)NNC(=O)c2ccccc2O)cc1 | -17.7% |  | 2060 nM [falling, partial curve]
14 | Cn1c(CNC(=O)Nc2ccccc2Cl)nnc1SCc1ccccc1 | 31.7% | 580 nM [falling, partial curve] | 7310 nM [rising, partial curve]
15 | O=C(Cc1cccc2ccccc12)Nc1ccc(Br)cc1C(=O)O | 3.23% |  | 
16 | CCOC(=O)C1=C(COC(=O)c2ccc(OC(C)C)cc2)NC(=O)NC1C (configuration not stated) | 49.1% | 5170 nM [rising, partial curve] | 2590 nM [rising, single point]
17 | COC(=O)c1[nH]c2cccc(OC)c2c1NC(=O)CCN1CCN(c2cccc(Cl)c2)CC1 | 13.3% | 2060 nM [rising, partial curve] | 2910 nM [rising, full curve]
18 | O=C(CSc1nc2[nH]ncc2c(=O)[nH]1)Nc1ccc(F)cc1 | -12.8% |  | 
19 | COc1cccc(-c2ccc3ncnc(NCc4ccc5c(c4)OCO5)c3c2)c1 | 4.14% |  | 13000 nM [rising, partial curve, poor fit]
20 | CC(C)(C)NC(=O)CN(C(=O)CNS(=O)(=O)c1ccc(Cl)cc1)c1ccc2c(c1)OCCO2 | 8.11% |  | 

Row | Compound | cell number change | AC50 [1] | AC50 [2]
21 | CC(=O)NC(CC(=O)Nc1ccc(S(=O)(=O)N2CCCC2)cc1)c1ccccc1 (configuration not stated) | -5.39% |  | 116 nM [falling, full curve, poor fit]
22 | O=C(CCN1CCN(S(=O)(=O)c2ccc(F)cc2)CC1)Nc1ccccc1F | 61.1% | 29100 nM [rising, single point] | 580 nM [rising, single point]
23 | CC(C)(C)c1cc[n+](-c2[nH]c(=O)sc2/C=N/N=C(\[O-])c2cccnc2)cc1 |  |  | 580 nM [rising, single point]
24 | Cc1ccc(-c2nc(NCc3cccnc3)c3ccccc3n2)cc1 | 13.8% |  | 461 nM [rising, full curve, poor fit]
25 | COc1ccc(-n2nc(C(=O)NCC(=O)NCCCN3CCOCC3)c3ccccc3c2=O)cc1OC | 23% | 231 nM [rising, full curve, poor fit] | 2310 nM [rising, partial curve]
26 | c1ccn(-c2ccc(-c3ccn[nH]3)cc2)c1 | 72.2% | 20600 nM [rising, single point] | 
27 | CCOc1ccc(-c2cc(CCCC(=O)NCCc3ccc(OC)c(OC)c3OC)no2)cc1 | 149% |  | 
28 | O=C(NCCS(=O)(=O)N1CCN(c2ccccc2F)CC1)c1ccc2c(c1)OCO2 | 18.2% |  | 8200 nM [rising, partial curve, poor fit]
29 | CCOc1ccc(N2C(=O)CC(N3CCN(c4ccc(Cl)cc4)CC3)C2=O)cc1 (configuration not stated) | 34.8% | 29100 nM [rising, single point] | 
30 | CC(=O)Nc1ccc(NC(=O)CCOc2cc(C)ccc2C)cc1 | 194% | 18400 nM [rising, partial curve] | 
31 | COc1ccc(-c2ccc(C(c3c(C)[nH][nH]c3=O)c3c(C)[nH][nH]c3=O)o2)c([N+](=O)[O-])c1 | -21.6% |  | 5170 nM [falling, partial curve, poor fit]
32 | CCOC(=O)N1CCN(CC(=O)Nc2c(C(=O)OC)[nH]c3ccccc23)CC1 | 3.53% |  | 6510 nM [rising, single point]
33 | CCC(C)(C)C1CCC(NC(=O)c2ccc(S(=O)(=O)N3CCOCC3)cc2)CC1 (configuration not stated) | 2.39% |  | 29100 nM [falling, single point]
34 | COc1cccc(-c2nnc(N)o2)c1 | 22.7% |  | 9200 nM [rising, partial curve]
35 | COC(=O)Cn1cnc2c(nnn2-c2cccc(OC)c2)c1=O | 42.3% | 13000 nM [rising, partial curve, poor fit] | 580 nM [rising, single point]
36 | Cn1c(=O)oc2cc(S(=O)(=O)N3CCCC(C(=O)Nc4nccs4)C3)ccc21 (configuration not stated) | -12.2% |  | 231 nM [rising, full curve, poor fit]
37 | CN(C)C(=O)c1nc2ccccc2s1 | -2.17% |  | 6510 nM [rising, partial curve, poor fit]
38 | CN(C)S(=O)(=O)c1cccc(NC(=S)NN=C(Cc2ccccc2)Cc2ccccc2)c1 | 6.9% | 6510 nM [rising, single point] | 16.4 nM [rising, partial curve, poor fit]
39 | COc1ccc(NC(=S)NCCC2=CCCCC2)cc1OC | 20.6% |  | 
40 | COc1ccc(C)cc1NC(=O)c1nnn(Cc2cc(C)ccc2C)c1N | -7.13% |  | 58 nM [rising, full curve, poor fit]

Row | Compound | cell number change | AC50 [1] | AC50 [2]
41 | Cc1cc(C)nc(NS(=O)(=O)c2ccc(NC(=O)c3ccc4c(c3)OCCO4)cc2)n1 | 3.46% |  | 
42 | CCc1cc2c(=O)n(CCCOC)c(SCC(=O)Nc3oc(C)c4c(C)n[nH]c(=O)c34)nc2s1 | 78.3% | 1460 nM [rising, full curve] | 
43 | CCc1ccc(C(O)(CC)C(CN2CCOCC2)c2ccccc2)cc1 (configuration not stated) | -27.7% |  | 18400 nM [falling, single point]
44 | CCCN(CC(=O)Nc1ccccc1OC)C(=O)Cc1ccc2c(c1)CCC2 | -11.8% |  | 116 nM [falling, full curve, poor fit]
45 | O=C(O)c1ccccc1OCc1ccccc1Br | -27.4% |  | 29100 nM [falling, single point]
46 | CCOC(=O)[C@@H]1[C@H]2COc3cc(OC)ccc3[C@H]2N2C(=O)N(c3cccc(Cl)c3)C(=O)[C@@]12C | 39.8% |  | 29100 nM [rising, single point]
47 | COc1ccc(OC)c(N(CC(=O)Nc2cccnc2)S(C)(=O)=O)c1 | 60.5% | 16400 nM [rising, partial curve] | 
48 | Cc1ccc(/C=N/N2CCN(c3ccccn3)CC2)o1 |  |  | 5.8 nM [rising, full curve, poor fit]
49 | CCc1ccc(-n2c(=O)c3c(C)c(C(=O)N(C)C)sc3n(CC(=O)NCc3ccco3)c2=O)cc1 | -15.7% |  | 
50 | CC(=O)O[C@]1(C(C)=O)CC[C@H]2[C@@H]3C=C(C)C4=CC(=O)CC[C@@H]4[C@H]3CC[C@@]21C | 9.43% |  | 517 nM [rising, full curve]
51 | O=C1CC(c2cccc(F)c2)SC(N(c2ccccc2)c2ccccc2)=N1 (configuration not stated) | 165% | 23100 nM [rising, partial curve] | 
52 | COc1ccc(CNC(=O)COC(=O)C2=COCCO2)cc1 | 26.7% |  | 1460 nM [rising, full curve]
53 | O=c1[nH]c2ccc(NC(=S)NC3CCCCC3)cc2[nH]1 |  |  | 580 nM [falling, single point]
54 | CNS(=O)(=O)c1cccc(C(=O)OC2CCOC2=O)c1 (configuration not stated) | -18.1% |  | 
55 | Cc1nc2ccc(NC(=O)c3cccc(S(=O)(=O)N4CC(C)OC(C)C4)c3)cc2s1 (configuration not stated) |  | 820 nM [rising, full curve, poor fit] | 
56 | CCOc1ccccc1/C=N/Nc1cc(C)nc2ccc(C)cc12 | -12.6% |  | 
57 | Cc1ccnc(NC(=O)c2cc3ccccc3o2)c1 | -14.7% |  | 58 nM [rising, full curve, poor fit]
58 | CCCOC(=O)C1[C@H]2C(=O)N(CCCOC)C[C@]23C=C[C@H]1O3 (some centres not stated) | 10.4% |  | 103 nM [rising, full curve, poor fit]
59 | Cn1c(N)c(C(=O)CSc2nnc(Cc3cccs3)n2C2CC2)c(=O)n(C)c1=O | 23.9% |  | 2060 nM [rising, full curve]
